Assay: general procedure: Fmoc solid-phase peptide synthesis; Fmoc-Rink-amide ChemMatrix, 0.47 mmol/g; HBTU/DIEA
Details: for difficulty met: whole synthesis, scale of the general procedure 50 μmoL

Row | Substance | outcome (conjugation step) | difficulty met
1 | BodiFluor-O2Oc-Tat(48-60)-O2Oc-Asp(paromomycin)-amide | present but in such low amounts and purity to render workup unfeasible | Analytical HPLC revealed a complex mixture
2 | Fmoc-O2Oc-Tat(48-60)-O2Oc-Asp(O-2-PhiPr)-resin | – | gave rise to a complex array of products

Source: publication PMC5329690 (International Journal of Peptides, 2017)
